Laboratory results published in PMC11551741 (Nucleic Acids Research, 2024).
For at least one entry, the source does not settle the construct or the ends of the probe. The comparison behind a weaker result is the experiment's own reference, which may not be listed here. Protein sequences can lack the tags named with them.

Molecular target: T1, SLF1 tBRCT (Homo sapiens) (UniProt Q9BQI6)
T1 sequence (looked up): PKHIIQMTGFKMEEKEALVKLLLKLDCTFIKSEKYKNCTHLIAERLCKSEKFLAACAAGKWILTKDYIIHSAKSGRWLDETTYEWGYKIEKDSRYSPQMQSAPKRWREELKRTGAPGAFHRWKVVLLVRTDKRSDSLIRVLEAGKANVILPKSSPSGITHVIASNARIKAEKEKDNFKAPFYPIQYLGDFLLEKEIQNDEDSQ
Experiment: competition EMSA
Details: 0.5 uM tBRCT, partial competition by RAD18 peptide S(pS)S(pS)DI; DNA EMSA: 40 mM Tris pH 7.5, 100 mM KCl, 0.2 mM DTT, 10% glycerol, 20 ug/ml BSA, 10 nM DNA, 4 C 30 min; recombinant protein; residues 6-208; label: 5' 6-FAM on strand 1

## TAAATGCCAATGCTGCTGATACGTACTCGGACTGATTCGGAACTGTAACG (double strand) [50 bp DNA, 6-FAM]
  binding result: binds more weakly
